Laboratory results reported in article PMC8359101.
Results are given in words; binding and its absence hold for the method and conditions named. In cells and extracts the contact can be indirect. Some results given as binding are weak or reduced against the parent protein; the word gives no strength. Where a sequence is shown, tags or fusion partners need not be part of it.

Chains of the proteins cited; added tags and fusions are not shown. Lines headed by an entry give the natural chain unless they say otherwise; changes in a name come on top.
UniProt P09874: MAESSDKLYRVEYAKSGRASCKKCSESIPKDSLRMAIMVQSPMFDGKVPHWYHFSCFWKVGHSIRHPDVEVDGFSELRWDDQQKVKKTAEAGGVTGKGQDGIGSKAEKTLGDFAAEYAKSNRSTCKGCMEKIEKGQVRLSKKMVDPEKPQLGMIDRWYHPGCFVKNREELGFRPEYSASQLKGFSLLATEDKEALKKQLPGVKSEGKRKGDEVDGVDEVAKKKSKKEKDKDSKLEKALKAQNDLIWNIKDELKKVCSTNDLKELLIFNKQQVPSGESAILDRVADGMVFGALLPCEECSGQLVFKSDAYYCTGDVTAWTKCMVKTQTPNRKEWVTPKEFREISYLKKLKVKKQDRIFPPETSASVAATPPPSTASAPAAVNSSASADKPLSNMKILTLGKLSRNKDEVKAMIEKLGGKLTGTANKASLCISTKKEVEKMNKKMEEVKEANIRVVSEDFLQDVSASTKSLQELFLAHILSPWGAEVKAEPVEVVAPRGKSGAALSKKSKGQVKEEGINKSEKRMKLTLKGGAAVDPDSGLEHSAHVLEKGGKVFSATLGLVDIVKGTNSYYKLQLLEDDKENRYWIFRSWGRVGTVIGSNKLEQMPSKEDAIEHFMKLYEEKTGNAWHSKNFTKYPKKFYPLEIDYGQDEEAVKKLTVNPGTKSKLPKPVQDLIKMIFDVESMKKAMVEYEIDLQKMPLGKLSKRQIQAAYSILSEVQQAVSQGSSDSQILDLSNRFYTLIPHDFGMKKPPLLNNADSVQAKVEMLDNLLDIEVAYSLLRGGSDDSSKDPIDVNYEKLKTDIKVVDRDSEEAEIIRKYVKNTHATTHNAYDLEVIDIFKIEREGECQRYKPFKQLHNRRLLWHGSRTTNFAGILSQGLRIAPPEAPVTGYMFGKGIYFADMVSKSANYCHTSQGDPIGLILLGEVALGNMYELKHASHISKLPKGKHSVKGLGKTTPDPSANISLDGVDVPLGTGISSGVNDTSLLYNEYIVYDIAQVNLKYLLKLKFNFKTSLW

Tests used:
[1] = biological target: T1, DIDO1-529aa with Flag tag (DIDO1-529aa-Flag), the 529 aa protein encoded by circDIDO1 (human) (UniProt Q9BTC0); assay: co-IP; Co-IP and Western blot of DIDO1-529aa and PARP1 (Fig. 4a); antibody cross-linked to magnetic beads with DSS, lysate at 4 °C overnight; cells not given
T1 sequence: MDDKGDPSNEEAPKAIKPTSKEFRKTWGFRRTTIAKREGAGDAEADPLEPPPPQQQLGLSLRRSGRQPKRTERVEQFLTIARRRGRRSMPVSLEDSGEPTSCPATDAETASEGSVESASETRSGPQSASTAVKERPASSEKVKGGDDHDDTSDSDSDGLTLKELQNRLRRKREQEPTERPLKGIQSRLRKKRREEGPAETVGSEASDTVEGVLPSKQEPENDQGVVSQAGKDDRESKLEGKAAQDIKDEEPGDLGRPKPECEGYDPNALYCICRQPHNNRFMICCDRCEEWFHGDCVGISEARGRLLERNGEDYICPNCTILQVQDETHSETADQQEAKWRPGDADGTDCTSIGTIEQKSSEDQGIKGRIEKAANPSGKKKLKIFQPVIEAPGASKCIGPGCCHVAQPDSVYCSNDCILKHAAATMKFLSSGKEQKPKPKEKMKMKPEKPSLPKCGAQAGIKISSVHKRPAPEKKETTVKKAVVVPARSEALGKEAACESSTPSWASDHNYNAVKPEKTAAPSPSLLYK

[2] = biological target: T1, DIDO1-529aa with Flag tag (DIDO1-529aa-Flag), the 529 aa protein encoded by circDIDO1 (human); assay: co-IP; DIDO1-529aa-Flag vector co-transfected with HA-tagged PARP1 deletions into 293 T cells, Co-IP (Fig. 4c)

Row | binding [1] | binding [2] | Substance
1 | binds | – | poly (ADP-ribose) polymerases-1 (PARP1) (from UniProt P09874 1-1014) (enzyme)
2 | – | binds | HA-tagged PARP1 deletion 525-1014 aa (from UniProt P09874 525-1014) (domain or fragment)
3 | – | binds | HA-tagged PARP1 deletion 1-372 aa (from UniProt P09874 1-372) (domain or fragment)
